Some of the results follow. This data set is noisy: repeats of one test often differ as much as different tests do.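 U2OS cells carrying ACE2 were mixed with U2OS cells carrying full-length spike, and fusion was scored by imaging as the share of nuclei showing both cell types' fluorescent markers. A compound counts as an inhibitory hit when it is non-toxic and its fusion z-score falls below -3, meaning more than three standard deviations below the plate's DMSO wells.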
System: U2OS ACE2 x SARS-CoV-2 spike co-culture
Assay: cell-cell fusion (fraction fused) z-score vs plate DMSO control; higher = more fusion
Settings: 30 µM; 5 h; toxicity class: non-toxic, passed QC

Row | SMILES | cell-cell fusion (z-score)
1 | NCCO.O=c1oc2ccccc2c(O)c1Cc1c(O)c2ccccc2oc1=O | inactive: 2.65
2 | CCCc1nn(C)c2c(=O)[nH]c(-c3cc(S(=O)(=O)N4CCN(C)CC4)ccc3OCC)nc12.O=C(O)CC(O)(CC(=O)O)C(=O)O | inactive: 4.35
3 | CCCc1nn(C)c2c(=O)[nH]c(-c3cc(S(=O)(=O)N4CCN(C)CC4)ccc3OCC)nc12.O=C(O)CC(O)(CC(=O)O)C(=O)O [Sildenafil] | inactive: 2.43
4 | CC(=O)Oc1ccccc1C(=O)O | inactive: 1.08
5 | CC(=O)Oc1ccccc1C(=O)O [Acetylsalicylic acid] | inactive: 1.56
6 | O=C(O)Cc1ccc(O)c(O)c1 [3,4-Dihydroxyphenylacetic acid] | inactive: 1.13
7 | CCOC(=O)[C@H](CCc1ccccc1)N[C@@H](C)C(=O)N1Cc2ccccc2C[C@H]1C(=O)O.Cl [Quinapril hydrochloride] | inactive: 3.61
8 | CC(C)NC[C@H](O)c1ccc(O)c(O)c1.O=C(O)[C@@H](O)[C@H](O)C(=O)O [R(-)-Isoproterenol (+)-bitartrate] | inactive: -2.29
9 | Cc1cn[nH]c1.Cl [4-Methylpyrazole hydrochloride] | inactive: 2.19
10 | Cc1cn[nH]c1.Cl | inactive: 2.06
11 | CC1(C)OC2=C(C(=O)c3ccccc3C2=O)[C@H](NCc2ccccc2)[C@@H]1O | active: -4.06
12 | Nc1nc(N)c2nc(CNc3ccc(C(=O)NC(CCC(=O)O)C(=O)O)cc3)cnc2n1 (stereo not given) [Aminopterin] | inactive: 1.36
13 | CCS(=O)(=O)CCn1c([N+](=O)[O-])cnc1C [Tinidazole] | inactive: 2.8
14 | COc1ncnc(NS(=O)(=O)c2ccc(N)cc2)c1OC [Sulfadoxine] | inactive: 2.4
15 | O=P(O)(O)C(O)(Cn1ccnc1)P(=O)(O)O [Zoledronic Acid] | inactive: 0.0387
16 | O=C(O)CC[N+](=O)[O-] [3-Nitropropionic acid] | inactive: 3.06
17 | O=C(O)CC[N+](=O)[O-] | inactive: 0.951
18 | CC(=O)Oc1ccc2c(c1)CCC1C2CC[C@@]2(C)C1CC[C@@H]2OC(C)=O (stereo not given in full) | inactive: 2.48

Laid out differently: results already given

| Row | SMILES | cell-cell fusion (z-score) |
| --- | --- | --- |
| 3 | CCCc1nn(C)c2c(=O)[nH]c(-c3cc(S(=O)(=O)N4CCN(C)CC4)ccc3OCC)nc12.O=C(O)CC(O)(CC(=O)O)C(=O)O [Sildenafil] | inactive: 2.43 |
| 12 | Nc1nc(N)c2nc(CNc3ccc(C(=O)NC(CCC(=O)O)C(=O)O)cc3)cnc2n1 (stereo not given) [Aminopterin] | inactive: 1.36 |

(listing goes on)

Row | SMILES | cell-cell fusion (z-score)
19 | Cc1cccc(C)c1NC(=O)c1ccccc1C(=O)O | inactive: 0.912
20 | COc1cc2c(cc1O)CC[C@@H]1[C@H]2CC[C@]2(C)[C@H](O)CC[C@@H]12 [2-Methoxyestradiol] | inactive: 2.41
21 | O=c1ccc2ccccc2o1 | inactive: 2.98
22 | O.O=P1(N(CCCl)CCCl)NCCCO1 (stereo not given) [Cyclophosphamide monohydrate] | inactive: 1.25
23 | COc1ccc2c(c1)OC[C@@H](Cc1ccc(OC)c(OC)c1)[C@H]2O | inactive: 1.42
24 | COc1cc(Nc2ncc(F)c(Nc3ccc4c(n3)N(COP(=O)(O)O)C(=O)C(C)(C)O4)n2)cc(OC)c1OC [Fostamatinib] | inactive: 1.15
25 | N[C@@H](C(=O)N[C@@H]1C(=O)N2C(C(=O)O)=C(Cl)CS[C@H]12)c1ccccc1.O [Cefaclor monohydrate] | inactive: 2.68
26 | CCCCC(=O)O[C@]1(C(=O)CO)[C@@H](C)C[C@H]2[C@@H]3CCC4=CC(=O)C=C[C@]4(C)[C@@]3(F)[C@@H](O)C[C@@]21C [Betamethasone 17-valerate] | inactive: 1.25
27 | O=C(NC(O)C(Cl)(Cl)Cl)NC(O)C(Cl)(Cl)Cl (stereo not given) | inactive: 1.42
28 | O=c1[nH]c2ccccc2n1CCCN1CCC(n2c(=O)[nH]c3cc(Cl)ccc32)CC1 [Domperidone] | inactive: 4.26
29 | O=c1[nH]c2ccccc2n1CCCN1CCC(n2c(=O)[nH]c3cc(Cl)ccc32)CC1 | inactive: 3.49
30 | CN1CC[C@@]2(C)c3cc(OC(=O)Nc4ccccc4)ccc3N(C)[C@@H]12 [Phenserine] | inactive: -1.13
31 | CCOc1ccccc1C(N)=O | inactive: 3.06
32 | CCc1cccc(N(C)C(=N)Nc2cccc3ccccc23)c1.Cl | inactive: -0.136
33 | O=C(O)c1nn(Cc2ccc(Cl)cc2Cl)c2ccccc12 | inactive: 1.34
34 | Br.CCCN(CCC)CCc1ccc(O)c(O)c1 [Dipropyldopamine hydrobromide] | inactive: -0.657
35 | CCCCCC(O)CCCC(=O)[O-].[Na+] (stereo not given) [5-hydroxydecanoic acid sodium] | inactive: 2.16

From the supplement of paper PMC8104966
